Some of the results follow. Shown are side measurements of this screen, not its main read-out; they come without a call. Most of these compounds were active or inconclusive in the main read-out, so they are no random draw. Potencies come from curve fits of mixed quality, noted in brackets.

This assay in a line: qHTS Assay for Modulators of Lamin A Splicing. The conditions noted are these: HeLa LMNA splicing GFP/RFP minigene ratio, 48 h. The method, boiled down:
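Read-out is the ratio of GFP to DsRed2 object intensity, acquired by 488 nm laser-scanning cytometry on HeLa lamin A-EGFP minigene reporter cells. Compound incubation 48 hrs at 37 °C in Opti-MEM with 2% FBS; DMSO 0.5% final.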

[1] abbreviates: measured here: RFP viability control channel.
The mark [2] stands for this setting: measured here: GFP splicing reporter channel.

One may read the AC50 as the concentration giving half of the maximal activity seen. On to `CCN1C(=O)[C@H]2[C@H]3[C@H](O)[C@H](O)C/C(=N\OC[C@@H](C)[C@H](OCc4ccccc4)C(C)C)[C@@H]3CC[C@H]2C1=O`, for which the AC50 under setting [1] is 31.6 µM [rising, single point].

As to `O=C(NCCCN1CCN(Cc2ccccc2)CC1)C1CCN(c2nnc(-n3cccc3)s2)CC1`, the concentration at half-maximal activity (AC50) runs as follows: under setting [2], 4.47 µM [rising, partial curve]; under setting [1], 15.8 µM [rising, partial curve].

Turning to `O=[N+]([O-])c1cc([N+](=O)[O-])c2c(=Nc3ccccc3)n(-c3ccccc3)n(O)c2c1`, the AC50 under setting [1] is 12.6 µM [rising, single point].

As to `N#Cc1cnc(NN)nc1`, under setting [1], the AC50 was 2 µM [rising, partial curve].

On to `COc1ccc(C2C=C(c3ccc(F)cc3)NC(=S)N2)cc1OC` (centres undefined), for which the AC50 under setting [1] is 35.5 µM [rising, single point].

Regarding `Cc1cc(OC(C)C(=O)N2CCC(c3nc4ccccc4o3)CC2)ccc1Cl` (centres undefined), the half-maximal activity concentration (AC50) runs as follows: under setting [2], 0.00562 µM [falling, full curve, poor fit]; under setting [1], 22.4 µM [falling, partial curve, poor fit].

As for `Cc1ccc(-c2csc(NC(=O)COc3ccc(N(C)S(=O)(=O)c4ccc(C)cc4)cc3)n2)cc1`, the AC50 by setting is: under setting [2], 8.91 µM [rising, partial curve]; under setting [1], 8.91 µM [rising, partial curve].

For `COc1ccc(S(=O)(=O)Cc2ccc(C(=O)N3CCN(c4cccc(C)c4C)CC3)o2)cc1`, the AC50 reads like this: under setting [2], 15.8 µM [falling, single point]; under setting [1], 31.6 µM [falling, single point].

As for `CCCNC(=O)C1CCN(C(=O)N2CC(C)Oc3ccccc32)CC1` (centres undefined), under setting [2], the AC50 is 17.8 µM [rising, partial curve].

Consider `COCCNC(=O)Nc1ccc2nc(-c3cccs3)c(-c3cccs3)nc2c1`, for which the half-maximal activity concentration (AC50) under setting [1] is 25.1 µM [rising, single point].

`Cc1cc(Oc2ccc(Cl)cc2)nc(SCC(=O)c2ccccc2)n1`: the AC50 under setting [1] was 20 µM [rising, single point].

Turning to `Cc1onc(-c2c(Cl)cccc2Cl)c1C(=O)c1ccccc1`, the AC50 is 35.5 µM [falling, single point] under setting [2] and 0.355 µM [falling, full curve, poor fit] under setting [1].

On to `O=C(Nc1sc2c(c1C(=O)O)CCCC2)c1cccs1`, for which the AC50 is, setting by setting: under setting [2], 10 µM [rising, partial curve]; under setting [1], 11.2 µM [rising, partial curve].

Consider `CCOCCCNc1nc(=S)[nH]c2cc(OC)c(OC)cc12`, for which the AC50 under setting [1] is 31.6 µM [rising, single point].

On to `O=C1NC(=O)c2cc(Nc3ccccc3)c(Nc3ccccc3)cc21`, for which the concentration at half-maximal activity (AC50) reads like this: under setting [2], 0.00501 µM [falling, full curve, poor fit]; under setting [1], 12.6 µM [falling, partial curve, poor fit].

As to `CCOc1cc(C)nc(N2CCC(C(=O)Nc3ccccc3OCC)CC2)n1`, under setting [1], the AC50 was 14.1 µM [rising, single point].

For `NS(=O)(=O)c1ccc(N=Nc2c(-c3ccccc3)[nH]n(-c3nc(-c4ccccc4)cs3)c2=O)cc1`, the AC50 is, setting by setting: under setting [2], 5.01 µM [rising, partial curve]; under setting [1], 3.55 µM [rising, full curve].

`CCC(c1nnnn1Cc1ccc(OC)cc1)N1CCN(c2ccc(OC)cc2)CC1` (centres undefined): the AC50 under setting [2] is 0.0316 µM [falling, full curve, poor fit].

For the compound `Cn1nc(C(F)(F)F)c(-c2ccccc2)c1NC(=O)CSCC(=O)O`, the AC50 was 1.58 µM [rising, partial curve] under setting [2] and 3.55 µM [rising, single point] under setting [1].

Regarding `Cc1ccccc1NC(=O)CNc1ccccc1N1CCCCC1`, the concentration at half-maximal activity (AC50) under setting [2] is 12.6 µM [rising, single point].

As for `CN(Cc1ccccc1)C(=O)c1ccc([N+](=O)[O-])o1`, the AC50 under setting [1] was 17.8 µM [rising, single point].

For `Cc1nn(C)c(C)c1NC(=O)c1ccc(Cl)cc1`, the AC50 is, setting by setting: under setting [2], 28.2 µM [falling, single point]; under setting [1], 10 µM [falling, partial curve].

In the case of `O=C(CCCSc1nc2ccccc2[nH]1)NC(c1ccccc1)c1ccccc1`, the AC50 under setting [1] was 12.6 µM [rising, single point].

On to `COC(=O)c1ccc2c(=O)n(CCCCCC(=O)N3CCN(c4cc(C)ccc4C)CC3)c(=O)[nH]c2c1`, for which the AC50 reads like this: under setting [2], 35.5 µM [falling, single point]; under setting [1], 35.5 µM [falling, single point].

Regarding `COc1ccc(CN2CC(=O)N(c3ccc(C)cc3)C2=S)cc1OC`, the AC50 was 31.6 µM [rising, single point] under setting [2] and 35.5 µM [rising, single point] under setting [1].

With `CCn1nc(C)c(/C=C/C(=O)Nc2ccc(C)cc2C)c1C`, the half-maximal activity concentration (AC50) under setting [2] is 1.41 µM [rising, partial curve, poor fit] and the AC50 under setting [1] is 35.5 µM [rising, single point].

For the compound `Cc1nc(CN(C)Cc2nc(Cc3ccccc3Cl)no2)cs1`, under setting [1], the AC50 is 20 µM [falling, partial curve, poor fit].

For the compound `Cc1ccc(S(=O)(=O)N2CCc3nc(COc4ccccc4)c4c(c3C2)CO[C@@H](C)C4)cc1`, under setting [1], the AC50 was 1.26 µM [falling, single point].

Take `CC(Sc1nc(-c2ccccc2)cs1)C(=O)Nc1ccc(Cl)cn1` (centres undefined): the half-maximal activity concentration (AC50) under setting [1] was 20 µM [rising, single point].

Turning to `COc1ccccc1-c1cc(C(=O)N/N=C/c2sccc2C)c2ccccc2n1`, the AC50 is 0.794 µM [falling, single point] under setting [2] and 0.631 µM [falling, single point] under setting [1].

For `OC(CNCC1CCCO1)Cn1c2ccc(Cl)cc2c2cc(Cl)ccc21` (centres undefined), the AC50 under setting [2] was 17.8 µM [falling, partial curve] and the AC50 under setting [1] is 20 µM [falling, partial curve].

`Cc1ccc(NC(=O)CSc2nc3ccccc3c(=O)n2CCC(=O)NC2CCCCC2)cc1C`: the AC50 under setting [1] is 35.5 µM [falling, partial curve, poor fit].

In the case of `c1ccc(CN2CCN(c3nc(NCc4ccco4)c4ccccc4n3)CC2)cc1`, the half-maximal activity concentration (AC50) was 15.8 µM [rising, partial curve] under setting [2] and 17.8 µM [rising, partial curve] under setting [1].

Take `CCOc1ccccc1NC(=O)c1cc2cc3cc(C)ccc3nc2s1`: the AC50 runs as follows: under setting [2], 14.1 µM [falling, partial curve]; under setting [1], 12.6 µM [falling, partial curve].

As for `CCCn1c2ccccc2c2cnn(CC(=O)N(CC)c3cc(C)ccc3C)c(=O)c21`, the half-maximal activity concentration (AC50) is, setting by setting: under setting [2], 35.5 µM [falling, single point]; under setting [1], 31.6 µM [falling, single point].

With `CCN(c1ccccc1)S(=O)(=O)c1ccc(Cl)c(C(=O)NCCc2ccc(OC)cc2)c1`, the AC50 was 12.6 µM [rising, partial curve] under setting [2] and 22.4 µM [rising, single point] under setting [1].

On to `COc1cc(C(=O)Nc2ccc(Cl)c(C(F)(F)F)c2)cc(OC)c1OC`, for which the AC50 under setting [1] was 22.4 µM [rising, single point].

Take `COC(=O)C1=C(O)/C(=C\c2sccc2C)N=C1C`: the AC50 under setting [2] is 5.01 µM [falling, full curve, poor fit].

As to `CCCCn1c(N)c(-c2nc3ccccc3o2)c2c([N+](=O)[O-])nn(CC)c(=O)c21`, under setting [1], the concentration at half-maximal activity (AC50) is 2.51 µM [rising, partial curve, poor fit].

As for `Cc1cc(=O)n(Cc2ccccc2)c2c1c(C)nn2-c1ccccc1`, the AC50 is 7.08 µM [rising, partial curve] under setting [2] and 12.6 µM [rising, single point] under setting [1].

With `Fc1ccccc1NC(=S)Nc1ccc(Br)cc1`, the AC50 under setting [1] was 35.5 µM [rising, single point].

Turning to `O=C(Nc1nc(-c2ccccc2)cs1)c1ccc(N2CCOCC2)c([N+](=O)[O-])c1`, the AC50 under setting [1] is 2.82 µM [rising, single point].

Regarding `CC(=O)Oc1ccc(-c2cccc(C(=O)O)c2)cc1`, the AC50 by setting is: under setting [2], 12.6 µM [falling, partial curve]; under setting [1], 11.2 µM [falling, partial curve].

As to `O=C(C1CCN(S(=O)(=O)c2ccc3ccccc3c2)CC1)N1CCN(c2ncccn2)CC1`, the AC50 under setting [2] was 2.82 µM [rising, partial curve] and the AC50 under setting [1] is 2.51 µM [rising, partial curve].

Consider `Cc1nnc(SC(C)C#N)n1-c1ccccc1` (centres undefined), for which the AC50 under setting [2] is 1.26 µM [falling, partial curve].

As for `CCOc1cc(S(=O)(=O)Nc2ccccc2CC)ccc1Cl`, under setting [1], the AC50 was 11.2 µM [rising, single point].

For the compound `CNC(=O)CCCN1C(=O)CCn2nc(-c3cn(C)c4ccccc34)cc21`, the AC50 under setting [2] was 35.5 µM [rising, partial curve, poor fit] and the AC50 under setting [1] was 31.6 µM [rising, partial curve, poor fit].

As to `CC(=O)Nc1nnc(SCC(=O)c2ccc3c(c2)Cc2ccccc2-3)s1`, the AC50 under setting [1] is 11.2 µM [rising, partial curve].

For `CCOC(=O)Cc1ccc(-c2ccccc2)cc1`, the AC50 was 7.94 µM [rising, partial curve, poor fit] under setting [2] and 35.5 µM [falling, single point] under setting [1].

As for `COc1cc(C(=O)Nc2ccc3oc(-c4cccnc4)nc3c2)cc(OC)c1OC`, under setting [2], the AC50 is 0.0126 µM [falling, full curve].

Take `CCOC(=O)c1[nH]c2ccc(OC)cc2c1N=CN(C)C`: under setting [1], the AC50 is 20 µM [rising, single point].

As for `CCOc1cc(CNCCO)cc(Br)c1OCc1ccc(Cl)cc1`, the AC50 is 25.1 µM [falling, single point] under setting [2] and 25.1 µM [falling, partial curve] under setting [1].

Consider `Cc1ccc(NC(=O)c2c3c(nc4ccccc24)C(=O)N(C2CCCCC2)C3)cc1F`, for which the AC50 runs as follows: under setting [2], 11.2 µM [falling, partial curve]; under setting [1], 10 µM [falling, partial curve].

For the origin of these results see PubChem BioAssay AID1487 (National Center for Advancing Translational Sciences (NCATS), 2009).
